Results on one molecule are retold here after PMC6081406 (Nature Communications, 2018).

These are yes or no findings as the source states them, for the method shown. For some assays here: Binding can be weak; no strength is given.

Experiment [1] concerns the target GABAAR α3 subunit large cytoplasmic loop (AA 392-406). As to the kind of experiment: ITC; CB-SH3 titrated against the receptor loops and truncated constructs; both purified. For orientation: ITC needs no label: the signal is the heat of the interaction.
Experiment [2] has as its target first half of the GABAAR α2 large intracellular loop. The description is as above.
Experiment [3] addresses E domain of gephyrin (GephE, AA 318-736). As to the kind of experiment: native gel or EMSA; NAGE; GephE alone or with CB-SH3; GephE with a fivefold molar excess of α2L and increasing amounts of the SH3 domain; both purified. On the technique in general: Mobility shift assays separate free from complexed probe on a gel.
The target of experiment [4] is GABAAR α3 subunit large cytoplasmic loop (AA 392-406). As to the kind of experiment: SEC; analytical size exclusion chromatography; single proteins or equimolar mixtures of the SH3 domain with α1L, α2L or α3L; fractions analysed by SDS-PAGE; both purified. For orientation: SEC sorts molecules by how far they enter the pores of the column.
For experiment [5] the target is unchanged. As to the kind of experiment: condition: threefold excess of GABAAR intracellular domains; native gel or EMSA; native agarose gel electrophoresis (NAGE), Coomassie staining; CB-SH3 alone or mixed with a threefold excess of GABAAR intracellular domains; both purified.

B1: SH3 domain of collybistin (CB-SH3) (domain or fragment, murine, UniProt Q3UTH8 4-72, looked up)
chain: LITGDSIVSAEAVWDHVTMANRELAFKAGDVIKVLDASNKDWWWGQIDDEEGWFPASFVRLWVNQEDGV
notes: collybistin CB1, murine, residues 4-72, encompassing the complete SH3 domain (residues 8-67); pGEX construct provided by T. Soykan (Brose lab); source: E. coli, purified (GST tag, in-situ thrombin cleavage, Superdex 200 SEC); not shown: GST, N-terminal, cleaved
As to B1, the binding result is recorded as “no binding (tested: >500 μM)” in experiment [1]; “binds” in experiment [2]; “no binding” in experiment [3]; “no binding (tested: equimolar mixtures)” in experiment [4]; “no binding” in experiment [5].
